Results from the supplement of paper PMC11732987, “Enantioselective OTUD7B fragment discovery through chemoproteomics screening and high-throughput optimisation” (Communications Chemistry, 2025).
The list shows a part of the results. The data scatter; read single values as rough.

Sequences of proteins named here, by UniProt entry; tags and fusion partners are left off. A change or cut given only in a name is not applied to a line headed by its entry. Residues count along the entry.
UniProt Q12769: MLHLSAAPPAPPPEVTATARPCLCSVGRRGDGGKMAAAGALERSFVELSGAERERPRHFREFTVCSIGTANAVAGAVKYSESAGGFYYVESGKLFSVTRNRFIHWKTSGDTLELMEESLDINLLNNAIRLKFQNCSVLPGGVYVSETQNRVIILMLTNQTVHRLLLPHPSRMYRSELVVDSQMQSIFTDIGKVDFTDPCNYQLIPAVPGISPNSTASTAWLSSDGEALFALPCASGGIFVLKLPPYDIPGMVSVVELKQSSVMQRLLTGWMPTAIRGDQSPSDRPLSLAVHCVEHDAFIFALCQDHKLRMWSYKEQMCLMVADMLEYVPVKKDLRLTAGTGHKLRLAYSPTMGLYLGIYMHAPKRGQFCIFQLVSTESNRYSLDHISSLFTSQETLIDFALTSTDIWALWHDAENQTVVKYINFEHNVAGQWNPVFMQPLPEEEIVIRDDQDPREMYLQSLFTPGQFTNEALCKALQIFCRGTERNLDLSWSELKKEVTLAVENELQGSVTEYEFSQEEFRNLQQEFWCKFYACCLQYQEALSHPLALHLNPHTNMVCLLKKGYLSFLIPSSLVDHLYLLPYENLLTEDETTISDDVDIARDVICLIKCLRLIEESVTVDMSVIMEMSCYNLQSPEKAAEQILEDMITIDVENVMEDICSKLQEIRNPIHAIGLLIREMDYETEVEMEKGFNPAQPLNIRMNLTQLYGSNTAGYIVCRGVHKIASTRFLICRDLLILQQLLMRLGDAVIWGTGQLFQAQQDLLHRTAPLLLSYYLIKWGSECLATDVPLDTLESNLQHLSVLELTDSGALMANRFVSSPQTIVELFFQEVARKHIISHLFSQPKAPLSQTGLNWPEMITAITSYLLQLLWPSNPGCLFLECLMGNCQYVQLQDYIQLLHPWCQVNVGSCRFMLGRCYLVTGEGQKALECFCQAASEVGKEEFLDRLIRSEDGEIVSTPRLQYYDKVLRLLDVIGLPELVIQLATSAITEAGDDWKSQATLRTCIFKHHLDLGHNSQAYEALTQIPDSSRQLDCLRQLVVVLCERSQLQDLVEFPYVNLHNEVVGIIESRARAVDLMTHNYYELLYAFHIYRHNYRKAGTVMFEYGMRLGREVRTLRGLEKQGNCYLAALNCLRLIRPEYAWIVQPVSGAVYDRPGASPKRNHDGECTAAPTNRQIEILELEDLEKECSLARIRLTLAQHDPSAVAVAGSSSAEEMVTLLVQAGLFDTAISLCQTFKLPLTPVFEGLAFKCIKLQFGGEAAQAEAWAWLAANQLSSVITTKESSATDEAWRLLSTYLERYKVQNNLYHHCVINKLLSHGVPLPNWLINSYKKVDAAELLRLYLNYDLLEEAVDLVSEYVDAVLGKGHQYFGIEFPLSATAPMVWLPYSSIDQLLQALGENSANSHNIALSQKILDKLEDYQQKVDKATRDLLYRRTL
UniProt Q8WV74: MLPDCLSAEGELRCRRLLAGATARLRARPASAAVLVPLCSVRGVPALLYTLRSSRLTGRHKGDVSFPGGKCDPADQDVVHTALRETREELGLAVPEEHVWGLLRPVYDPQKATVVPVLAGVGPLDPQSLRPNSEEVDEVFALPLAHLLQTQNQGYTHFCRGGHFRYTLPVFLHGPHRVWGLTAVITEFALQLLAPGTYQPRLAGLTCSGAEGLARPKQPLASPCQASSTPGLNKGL
UniProt Q96L73, 794-813: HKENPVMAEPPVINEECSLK
UniProt O75607: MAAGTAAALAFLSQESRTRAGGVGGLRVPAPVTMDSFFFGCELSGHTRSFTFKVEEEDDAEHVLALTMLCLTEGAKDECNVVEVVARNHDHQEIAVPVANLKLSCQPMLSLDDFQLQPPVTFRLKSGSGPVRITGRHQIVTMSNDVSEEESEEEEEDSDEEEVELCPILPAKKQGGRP
UniProt P49790, whole entry, looked up: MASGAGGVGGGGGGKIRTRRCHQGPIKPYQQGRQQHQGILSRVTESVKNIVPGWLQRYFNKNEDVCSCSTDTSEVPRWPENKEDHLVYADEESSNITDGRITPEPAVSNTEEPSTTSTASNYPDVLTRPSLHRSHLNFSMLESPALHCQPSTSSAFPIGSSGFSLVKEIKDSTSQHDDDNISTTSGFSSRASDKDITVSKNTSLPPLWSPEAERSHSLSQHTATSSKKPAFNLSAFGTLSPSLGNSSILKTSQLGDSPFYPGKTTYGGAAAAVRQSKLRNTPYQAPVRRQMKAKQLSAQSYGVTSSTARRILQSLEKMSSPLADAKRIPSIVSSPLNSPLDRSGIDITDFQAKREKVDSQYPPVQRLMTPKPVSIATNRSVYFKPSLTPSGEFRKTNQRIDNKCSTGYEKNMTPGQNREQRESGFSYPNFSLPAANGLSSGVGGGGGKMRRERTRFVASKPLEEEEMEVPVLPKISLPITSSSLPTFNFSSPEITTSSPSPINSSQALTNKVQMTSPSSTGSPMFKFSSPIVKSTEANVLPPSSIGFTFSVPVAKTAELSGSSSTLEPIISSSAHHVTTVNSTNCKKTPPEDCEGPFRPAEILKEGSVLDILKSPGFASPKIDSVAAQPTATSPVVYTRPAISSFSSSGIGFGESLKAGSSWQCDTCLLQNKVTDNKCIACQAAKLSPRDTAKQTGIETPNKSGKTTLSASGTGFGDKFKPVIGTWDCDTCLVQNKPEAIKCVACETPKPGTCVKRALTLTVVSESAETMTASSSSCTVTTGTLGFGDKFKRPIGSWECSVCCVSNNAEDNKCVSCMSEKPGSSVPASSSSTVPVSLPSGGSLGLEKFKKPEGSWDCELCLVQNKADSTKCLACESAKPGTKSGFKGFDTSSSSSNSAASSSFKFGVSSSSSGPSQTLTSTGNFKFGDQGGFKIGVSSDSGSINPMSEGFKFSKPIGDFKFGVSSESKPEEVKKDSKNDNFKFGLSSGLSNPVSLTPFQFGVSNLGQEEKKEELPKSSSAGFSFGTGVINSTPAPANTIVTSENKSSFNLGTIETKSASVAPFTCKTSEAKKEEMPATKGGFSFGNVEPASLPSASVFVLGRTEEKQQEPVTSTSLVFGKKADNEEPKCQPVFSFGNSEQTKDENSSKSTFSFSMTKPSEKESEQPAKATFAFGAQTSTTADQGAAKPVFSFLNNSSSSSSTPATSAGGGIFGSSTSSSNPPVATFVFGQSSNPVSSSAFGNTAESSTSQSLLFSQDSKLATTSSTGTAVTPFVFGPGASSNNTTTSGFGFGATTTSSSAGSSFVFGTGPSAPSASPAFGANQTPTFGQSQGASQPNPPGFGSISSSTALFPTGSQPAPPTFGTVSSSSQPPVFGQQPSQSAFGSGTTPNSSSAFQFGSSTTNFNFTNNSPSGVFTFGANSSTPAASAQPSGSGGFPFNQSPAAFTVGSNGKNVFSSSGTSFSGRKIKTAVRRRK
UniProt O60502: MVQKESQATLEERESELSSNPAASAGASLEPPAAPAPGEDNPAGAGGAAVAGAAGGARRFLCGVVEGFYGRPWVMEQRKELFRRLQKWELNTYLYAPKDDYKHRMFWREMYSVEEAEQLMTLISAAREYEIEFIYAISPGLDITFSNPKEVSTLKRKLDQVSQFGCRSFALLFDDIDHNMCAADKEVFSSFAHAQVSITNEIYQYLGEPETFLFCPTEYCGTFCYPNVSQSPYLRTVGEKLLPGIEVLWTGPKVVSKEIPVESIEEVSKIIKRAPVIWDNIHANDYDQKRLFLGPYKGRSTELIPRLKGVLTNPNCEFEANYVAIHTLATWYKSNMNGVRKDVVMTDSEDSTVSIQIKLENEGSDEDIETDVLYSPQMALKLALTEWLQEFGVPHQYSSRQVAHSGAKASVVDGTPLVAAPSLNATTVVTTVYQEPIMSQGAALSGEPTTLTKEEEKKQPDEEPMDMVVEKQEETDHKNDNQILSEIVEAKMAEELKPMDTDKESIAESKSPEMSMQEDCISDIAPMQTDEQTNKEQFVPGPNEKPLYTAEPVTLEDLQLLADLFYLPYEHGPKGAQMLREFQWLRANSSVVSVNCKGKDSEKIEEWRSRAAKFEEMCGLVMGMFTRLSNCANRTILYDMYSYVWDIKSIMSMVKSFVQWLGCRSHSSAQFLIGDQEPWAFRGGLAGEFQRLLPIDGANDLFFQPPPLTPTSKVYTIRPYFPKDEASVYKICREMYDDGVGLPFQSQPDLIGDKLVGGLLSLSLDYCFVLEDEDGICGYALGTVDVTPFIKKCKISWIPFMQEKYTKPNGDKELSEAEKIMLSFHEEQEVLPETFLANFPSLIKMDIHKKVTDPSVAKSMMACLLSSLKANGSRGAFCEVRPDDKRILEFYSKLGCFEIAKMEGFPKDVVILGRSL
UniProt Q9UHK0: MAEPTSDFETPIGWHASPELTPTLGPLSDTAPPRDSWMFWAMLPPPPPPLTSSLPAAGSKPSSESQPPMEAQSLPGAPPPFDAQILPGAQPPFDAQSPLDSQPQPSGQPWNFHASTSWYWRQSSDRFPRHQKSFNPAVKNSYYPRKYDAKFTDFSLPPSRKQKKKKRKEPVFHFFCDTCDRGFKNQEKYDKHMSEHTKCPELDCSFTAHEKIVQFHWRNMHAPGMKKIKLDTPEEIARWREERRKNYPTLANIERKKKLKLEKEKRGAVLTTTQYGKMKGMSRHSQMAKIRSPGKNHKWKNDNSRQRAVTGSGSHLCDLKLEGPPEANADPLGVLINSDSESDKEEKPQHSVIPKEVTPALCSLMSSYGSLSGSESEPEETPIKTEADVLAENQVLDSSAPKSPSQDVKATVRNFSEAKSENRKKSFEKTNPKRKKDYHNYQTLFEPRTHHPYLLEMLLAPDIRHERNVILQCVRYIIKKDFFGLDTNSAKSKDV
UniProt Q969R2: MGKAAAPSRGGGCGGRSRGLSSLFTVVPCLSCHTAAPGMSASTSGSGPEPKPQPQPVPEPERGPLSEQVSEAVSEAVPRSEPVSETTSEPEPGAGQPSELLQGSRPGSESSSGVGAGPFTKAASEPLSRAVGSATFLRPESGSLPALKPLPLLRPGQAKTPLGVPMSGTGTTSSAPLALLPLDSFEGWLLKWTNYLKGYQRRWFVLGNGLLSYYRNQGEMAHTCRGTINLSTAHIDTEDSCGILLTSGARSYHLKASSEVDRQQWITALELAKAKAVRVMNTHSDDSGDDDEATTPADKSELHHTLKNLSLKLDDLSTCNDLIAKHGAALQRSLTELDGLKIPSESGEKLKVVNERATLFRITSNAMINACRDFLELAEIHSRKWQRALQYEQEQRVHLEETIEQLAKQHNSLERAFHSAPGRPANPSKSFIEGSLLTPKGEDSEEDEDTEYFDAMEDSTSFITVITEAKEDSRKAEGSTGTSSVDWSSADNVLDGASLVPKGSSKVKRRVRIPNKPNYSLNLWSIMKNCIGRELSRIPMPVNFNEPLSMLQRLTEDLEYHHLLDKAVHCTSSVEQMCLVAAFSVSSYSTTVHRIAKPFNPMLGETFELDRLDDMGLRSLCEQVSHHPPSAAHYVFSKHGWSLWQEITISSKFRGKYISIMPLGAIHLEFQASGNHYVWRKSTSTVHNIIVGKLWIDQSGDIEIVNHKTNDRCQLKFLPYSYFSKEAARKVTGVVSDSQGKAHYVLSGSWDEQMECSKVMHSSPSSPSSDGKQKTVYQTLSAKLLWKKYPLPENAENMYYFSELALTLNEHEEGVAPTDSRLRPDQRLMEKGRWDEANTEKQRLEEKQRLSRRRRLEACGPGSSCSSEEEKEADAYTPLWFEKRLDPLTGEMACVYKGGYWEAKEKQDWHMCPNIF
UniProt P04150, 367-386: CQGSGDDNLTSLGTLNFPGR
UniProt O15381: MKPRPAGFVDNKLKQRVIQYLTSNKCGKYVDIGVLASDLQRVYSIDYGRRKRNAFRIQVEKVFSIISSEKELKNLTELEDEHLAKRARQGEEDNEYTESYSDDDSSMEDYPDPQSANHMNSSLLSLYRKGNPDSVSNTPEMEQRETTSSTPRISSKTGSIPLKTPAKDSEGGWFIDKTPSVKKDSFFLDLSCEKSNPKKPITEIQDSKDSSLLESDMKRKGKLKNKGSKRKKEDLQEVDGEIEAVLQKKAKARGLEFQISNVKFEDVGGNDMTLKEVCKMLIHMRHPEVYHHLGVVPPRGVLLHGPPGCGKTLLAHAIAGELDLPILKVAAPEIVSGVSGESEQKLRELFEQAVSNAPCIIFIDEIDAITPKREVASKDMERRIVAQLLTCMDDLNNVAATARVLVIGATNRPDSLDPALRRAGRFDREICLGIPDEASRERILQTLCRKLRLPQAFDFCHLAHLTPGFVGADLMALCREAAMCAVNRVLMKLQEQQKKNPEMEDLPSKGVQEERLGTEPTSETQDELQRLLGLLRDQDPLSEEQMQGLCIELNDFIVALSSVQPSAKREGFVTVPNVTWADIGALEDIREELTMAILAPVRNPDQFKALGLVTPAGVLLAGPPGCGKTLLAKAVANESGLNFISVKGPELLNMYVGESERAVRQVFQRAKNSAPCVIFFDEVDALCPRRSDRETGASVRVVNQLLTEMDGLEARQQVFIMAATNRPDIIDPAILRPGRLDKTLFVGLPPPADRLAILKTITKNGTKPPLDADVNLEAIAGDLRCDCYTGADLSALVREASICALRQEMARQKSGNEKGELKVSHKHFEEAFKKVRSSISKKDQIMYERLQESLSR

Compound: ClCC(=O)N[C@H]1CCCc2ccccc12
Assay: log2 mean competition ratio of IA-DTB cysteine labelling (DMSO/compound) (log2 ratio); higher = stronger cysteine engagement by compound
Details: 50 µM; treatment time: 4 h; cell line lysate: HEK293T
Method: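 IA-DTB competitive cysteine chemoproteomics in HEK293T RIPA lysate. Lysates were treated with compound 29 or 30 at 50 or 200 µM for 4 h, then IA-DTB (500 µM, 1 h), trypsin-digested, NeutrAvidin-enriched and analysed by diaPASEF. Competition ratio = intensity DMSO / intensity compound (n=4 treated, n=64 DMSO); binding: mean log2 CR ≥ 1 and p ≤ 0.05 plus QC filters. Target is the cysteine site.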

Target	log2 mean competition ratio
OSBPL2 C122 (UniProt Q9H1P3)	0.0721
NUP160 C605 (UniProt Q12769)	-0.176
NUDT8 C5 (UniProt Q8WV74)	0.164
NSD1 C944 (UniProt Q96L73)	-0.201
NUDT9 C347 (UniProt Q9BW91)	-0.342
NPM3 C79 (UniProt O75607)	-0.54
NUDT2 C143 (UniProt P50583)	0.244
NXT2;NXT1 C133;(C132)	0.129
NRDC C1027 (UniProt O43847)	-0.471
NT5DC3 C276 (UniProt Q86UY8)	-0.495
NUP153 C1065 (UniProt P49790)	0.636
OGA C896 (UniProt O60502)	0.0911
NSRP1 C232 (UniProt Q9H0G5)	0.79
NSD1 C810 (UniProt Q96L73)	0.141
NUFIP1 C317 (UniProt Q9UHK0)	0.181
OSBP2 C319 (UniProt Q969R2)	-0.386
NUP214 C1003	0.0402
NUP153 C593 (UniProt P49790)	-0.267
NUP160 C529 (UniProt Q12769)	-0.0327

Target	log2 mean competition ratio
NSUN3 C214 (UniProt Q9H649)	0.129
NUP188 C161 (UniProt Q5SRE5)	-0.408
NSD1 C2508 (UniProt Q96L73)	-0.0155
OGDH C331 (UniProt Q02218)	-0.178
NUP35 C255 (UniProt Q8NFH5)	-0.034
NR3C1 C367 (UniProt P04150)	0.331
NSD2 C207 (UniProt O96028)	0.0536
NVL C803 (UniProt O15381)	0.501
NPTX1 C89 (UniProt Q15818)	-0.138
NUMBL C78 (UniProt Q9Y6R0)	0.245
NSDHL C86	-0.204
NT5C3B C56 (UniProt Q969T7)	-0.144
NPEPPS C265 (UniProt P55786)	-0.0186
NT5C3A C73 (UniProt Q9H0P0)	-0.427
NUMA1 C1136 (UniProt Q14980)	-0.15
NUP88 C561 (UniProt Q99567)	-0.558
OTUB2 C51 (UniProt Q96DC9)	-0.171
OBI1 C555 (UniProt Q5W0B1)	-0.0317
NR3C1 C287 (UniProt P04150)	-0.228

Same assay, conditions: 200 µM; treatment time: 4 h; cell line lysate: HEK293T

Target	log2 mean competition ratio
OSBPL2 C122 (UniProt Q9H1P3)	0.281
NUP160 C605 (UniProt Q12769)	-0.146
NUDT8 C5 (UniProt Q8WV74)	-0.16
NSD1 C944 (UniProt Q96L73)	0.0302
NUDT9 C347 (UniProt Q9BW91)	0.142
NPM3 C79 (UniProt O75607)	-0.064
NUDT2 C143 (UniProt P50583)	-0.315
NXT2;NXT1 C133;(C132)	0.132
NRDC C1027 (UniProt O43847)	-0.437
NT5DC3 C276 (UniProt Q86UY8)	-0.29
NUP153 C1065 (UniProt P49790)	-0.0223
OGA C896 (UniProt O60502)	-0.014
NSRP1 C232 (UniProt Q9H0G5)	0.114
NSD1 C810 (UniProt Q96L73)	0.227
NUFIP1 C317 (UniProt Q9UHK0)	-0.0161
OSBP2 C319 (UniProt Q969R2)	0.0669
NUP214 C1003	-0.118
NUP153 C593 (UniProt P49790)	0.205
NUP160 C529 (UniProt Q12769)	-0.251

Target	log2 mean competition ratio
NSUN3 C214 (UniProt Q9H649)	0.0701
NUP188 C161 (UniProt Q5SRE5)	-0.274
NSD1 C2508 (UniProt Q96L73)	-0.0496
OGDH C331 (UniProt Q02218)	-0.165
NUP35 C255 (UniProt Q8NFH5)	0.262
NR3C1 C367 (UniProt P04150)	0.204
NSD2 C207 (UniProt O96028)	0.249
NVL C803 (UniProt O15381)	0.0592
NPTX1 C89 (UniProt Q15818)	-0.318
NUMBL C78 (UniProt Q9Y6R0)	0.318
NSDHL C86	0.0147
NT5C3B C56 (UniProt Q969T7)	0.15
NPEPPS C265 (UniProt P55786)	-0.282
NT5C3A C73 (UniProt Q9H0P0)	-0.144
NUMA1 C1136 (UniProt Q14980)	-0.0788
NUP88 C561 (UniProt Q99567)	-0.271
OTUB2 C51 (UniProt Q96DC9)	-0.0194
OBI1 C555 (UniProt Q5W0B1)	-0.0812
NR3C1 C287 (UniProt P04150)	0.0328
